Compound in the test: CC1Cc2ccccc2N1C(=O)C1CCCN(C1)C(=O)CCl (mixture of isomers) [TRIM25 ligand 11 (diastereomer mixture)]
In words: probe-labelled cysteine peptide fold change vs DMSO (competition) (log2 fold change); higher = less target engagement (more negative = stronger competition). The following applies: THP-1, incubation time: 4 h.

Chains of the proteins cited; added tags and fusions are not shown. Lines headed by an entry give the natural chain unless they say otherwise; changes in a name come on top.
UniProt O60488: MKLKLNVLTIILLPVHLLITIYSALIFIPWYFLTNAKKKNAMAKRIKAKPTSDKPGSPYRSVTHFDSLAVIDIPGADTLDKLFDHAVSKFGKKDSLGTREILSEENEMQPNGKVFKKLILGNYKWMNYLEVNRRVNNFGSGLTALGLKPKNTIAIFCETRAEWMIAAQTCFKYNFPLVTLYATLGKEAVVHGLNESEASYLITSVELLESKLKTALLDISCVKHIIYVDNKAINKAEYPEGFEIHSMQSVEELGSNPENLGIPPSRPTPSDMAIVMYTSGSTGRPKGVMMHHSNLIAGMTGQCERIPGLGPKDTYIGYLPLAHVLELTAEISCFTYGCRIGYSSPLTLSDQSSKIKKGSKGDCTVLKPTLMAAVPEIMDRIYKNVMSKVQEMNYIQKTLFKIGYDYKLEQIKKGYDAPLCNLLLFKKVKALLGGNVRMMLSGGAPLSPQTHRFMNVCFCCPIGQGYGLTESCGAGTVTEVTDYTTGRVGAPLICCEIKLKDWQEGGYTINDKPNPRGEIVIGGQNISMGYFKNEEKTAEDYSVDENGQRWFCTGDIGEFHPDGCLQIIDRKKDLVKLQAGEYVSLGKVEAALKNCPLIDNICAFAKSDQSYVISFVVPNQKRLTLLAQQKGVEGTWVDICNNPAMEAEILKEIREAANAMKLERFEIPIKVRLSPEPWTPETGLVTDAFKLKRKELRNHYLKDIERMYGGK
UniProt P55265: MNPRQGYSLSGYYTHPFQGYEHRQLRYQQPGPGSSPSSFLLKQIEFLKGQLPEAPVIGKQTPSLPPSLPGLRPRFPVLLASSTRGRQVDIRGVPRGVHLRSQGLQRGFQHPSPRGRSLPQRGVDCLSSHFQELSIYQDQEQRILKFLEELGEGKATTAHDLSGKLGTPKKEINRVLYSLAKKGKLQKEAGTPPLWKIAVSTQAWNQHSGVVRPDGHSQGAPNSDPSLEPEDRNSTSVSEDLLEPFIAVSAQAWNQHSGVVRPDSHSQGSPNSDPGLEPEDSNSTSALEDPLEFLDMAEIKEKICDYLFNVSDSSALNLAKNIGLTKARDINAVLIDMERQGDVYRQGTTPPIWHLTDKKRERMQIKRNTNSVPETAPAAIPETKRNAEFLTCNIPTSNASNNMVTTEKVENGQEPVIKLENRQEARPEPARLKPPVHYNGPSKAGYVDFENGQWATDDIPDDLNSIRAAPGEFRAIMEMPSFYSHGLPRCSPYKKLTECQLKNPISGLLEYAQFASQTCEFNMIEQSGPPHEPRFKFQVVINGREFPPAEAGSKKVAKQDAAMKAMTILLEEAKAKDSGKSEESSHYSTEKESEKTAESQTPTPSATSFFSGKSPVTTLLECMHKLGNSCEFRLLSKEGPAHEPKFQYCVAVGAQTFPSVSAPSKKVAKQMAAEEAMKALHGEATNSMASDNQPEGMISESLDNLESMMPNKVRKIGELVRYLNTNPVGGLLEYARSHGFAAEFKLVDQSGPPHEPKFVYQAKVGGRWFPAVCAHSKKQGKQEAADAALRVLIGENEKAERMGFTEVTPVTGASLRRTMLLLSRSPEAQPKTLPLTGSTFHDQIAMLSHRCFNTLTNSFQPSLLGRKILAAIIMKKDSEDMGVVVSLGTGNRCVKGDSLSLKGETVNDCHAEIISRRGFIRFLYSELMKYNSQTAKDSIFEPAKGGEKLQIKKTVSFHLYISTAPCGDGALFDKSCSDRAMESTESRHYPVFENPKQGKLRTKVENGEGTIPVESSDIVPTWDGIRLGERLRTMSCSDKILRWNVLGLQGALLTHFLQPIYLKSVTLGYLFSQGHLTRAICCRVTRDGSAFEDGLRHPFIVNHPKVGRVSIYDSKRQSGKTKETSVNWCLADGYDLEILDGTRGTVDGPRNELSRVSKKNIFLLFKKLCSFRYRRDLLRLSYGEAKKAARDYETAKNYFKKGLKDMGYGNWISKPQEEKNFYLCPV
UniProt Q9H2P0: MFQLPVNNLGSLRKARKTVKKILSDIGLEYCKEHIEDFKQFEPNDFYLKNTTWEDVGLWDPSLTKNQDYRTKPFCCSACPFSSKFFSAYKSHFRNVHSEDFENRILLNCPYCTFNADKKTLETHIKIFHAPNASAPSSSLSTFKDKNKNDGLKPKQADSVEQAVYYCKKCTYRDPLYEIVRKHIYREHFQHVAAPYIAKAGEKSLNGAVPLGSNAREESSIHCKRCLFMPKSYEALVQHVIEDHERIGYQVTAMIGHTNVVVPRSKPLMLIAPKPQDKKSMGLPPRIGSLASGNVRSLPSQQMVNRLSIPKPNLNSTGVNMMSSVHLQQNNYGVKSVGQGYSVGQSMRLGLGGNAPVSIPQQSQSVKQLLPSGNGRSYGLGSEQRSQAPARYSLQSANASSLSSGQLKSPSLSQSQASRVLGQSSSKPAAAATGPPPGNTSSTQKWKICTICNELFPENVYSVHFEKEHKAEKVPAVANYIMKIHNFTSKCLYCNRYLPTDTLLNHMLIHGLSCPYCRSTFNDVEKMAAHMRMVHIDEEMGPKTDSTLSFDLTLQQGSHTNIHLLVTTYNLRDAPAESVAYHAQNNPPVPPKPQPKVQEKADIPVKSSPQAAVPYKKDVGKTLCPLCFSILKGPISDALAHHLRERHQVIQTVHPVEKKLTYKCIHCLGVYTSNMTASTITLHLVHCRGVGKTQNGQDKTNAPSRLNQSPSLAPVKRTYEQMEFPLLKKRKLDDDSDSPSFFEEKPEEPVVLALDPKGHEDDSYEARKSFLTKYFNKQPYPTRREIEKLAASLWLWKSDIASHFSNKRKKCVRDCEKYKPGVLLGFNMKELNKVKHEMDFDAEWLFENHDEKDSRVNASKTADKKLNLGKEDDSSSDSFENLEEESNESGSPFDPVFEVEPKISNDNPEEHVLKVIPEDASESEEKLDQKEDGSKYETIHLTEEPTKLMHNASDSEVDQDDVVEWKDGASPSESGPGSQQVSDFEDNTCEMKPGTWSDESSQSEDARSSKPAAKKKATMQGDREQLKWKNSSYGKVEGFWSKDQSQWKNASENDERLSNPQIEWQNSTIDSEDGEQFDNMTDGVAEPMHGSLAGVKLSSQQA
UniProt P11766: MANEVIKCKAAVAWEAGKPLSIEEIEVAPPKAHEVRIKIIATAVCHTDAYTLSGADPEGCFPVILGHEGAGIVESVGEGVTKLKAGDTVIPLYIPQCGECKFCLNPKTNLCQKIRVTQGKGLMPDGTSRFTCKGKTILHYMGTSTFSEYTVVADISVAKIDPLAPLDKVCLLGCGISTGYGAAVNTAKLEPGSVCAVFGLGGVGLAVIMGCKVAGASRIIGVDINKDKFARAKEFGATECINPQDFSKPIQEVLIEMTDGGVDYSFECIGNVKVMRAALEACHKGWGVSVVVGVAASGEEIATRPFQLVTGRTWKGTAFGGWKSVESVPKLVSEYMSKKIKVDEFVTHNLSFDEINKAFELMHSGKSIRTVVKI
UniProt Q9H9F9, whole entry, looked up: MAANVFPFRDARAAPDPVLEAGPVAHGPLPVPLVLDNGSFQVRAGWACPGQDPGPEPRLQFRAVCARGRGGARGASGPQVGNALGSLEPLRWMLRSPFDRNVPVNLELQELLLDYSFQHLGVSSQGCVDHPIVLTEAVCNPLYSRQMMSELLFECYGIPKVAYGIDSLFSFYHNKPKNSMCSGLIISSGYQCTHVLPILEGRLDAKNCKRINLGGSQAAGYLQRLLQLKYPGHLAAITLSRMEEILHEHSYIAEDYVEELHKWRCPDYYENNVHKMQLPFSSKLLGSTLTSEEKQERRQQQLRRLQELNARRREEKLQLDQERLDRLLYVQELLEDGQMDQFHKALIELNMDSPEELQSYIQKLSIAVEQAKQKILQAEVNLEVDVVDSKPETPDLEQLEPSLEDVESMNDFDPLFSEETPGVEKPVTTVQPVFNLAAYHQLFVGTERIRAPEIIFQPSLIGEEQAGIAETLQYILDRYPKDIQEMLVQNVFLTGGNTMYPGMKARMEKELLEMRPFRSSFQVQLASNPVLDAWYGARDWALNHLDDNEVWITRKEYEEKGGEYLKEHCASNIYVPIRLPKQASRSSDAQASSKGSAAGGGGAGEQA
UniProt Q8N9L9: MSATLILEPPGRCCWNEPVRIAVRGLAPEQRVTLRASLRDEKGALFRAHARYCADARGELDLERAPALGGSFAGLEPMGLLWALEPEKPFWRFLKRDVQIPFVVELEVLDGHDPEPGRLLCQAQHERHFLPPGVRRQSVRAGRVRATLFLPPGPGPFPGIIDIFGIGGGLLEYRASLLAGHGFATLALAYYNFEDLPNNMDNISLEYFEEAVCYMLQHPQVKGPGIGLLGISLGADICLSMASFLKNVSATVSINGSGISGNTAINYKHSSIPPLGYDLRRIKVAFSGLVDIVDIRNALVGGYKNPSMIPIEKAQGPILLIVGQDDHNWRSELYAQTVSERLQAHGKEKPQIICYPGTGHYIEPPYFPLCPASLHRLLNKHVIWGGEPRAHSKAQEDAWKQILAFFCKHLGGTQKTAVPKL
UniProt P30520: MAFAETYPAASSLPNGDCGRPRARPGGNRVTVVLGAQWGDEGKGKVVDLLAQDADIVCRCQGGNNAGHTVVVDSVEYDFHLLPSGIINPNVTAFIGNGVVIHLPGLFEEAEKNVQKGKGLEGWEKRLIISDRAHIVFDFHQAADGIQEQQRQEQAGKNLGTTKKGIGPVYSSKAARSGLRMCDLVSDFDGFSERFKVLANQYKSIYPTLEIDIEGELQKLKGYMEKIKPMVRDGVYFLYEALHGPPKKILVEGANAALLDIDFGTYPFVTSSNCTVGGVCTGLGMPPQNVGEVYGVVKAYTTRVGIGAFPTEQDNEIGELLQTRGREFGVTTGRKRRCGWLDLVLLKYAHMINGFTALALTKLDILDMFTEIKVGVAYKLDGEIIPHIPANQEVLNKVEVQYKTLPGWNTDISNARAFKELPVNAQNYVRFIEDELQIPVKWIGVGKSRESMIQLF
UniProt Q9GZN1, whole entry, looked up: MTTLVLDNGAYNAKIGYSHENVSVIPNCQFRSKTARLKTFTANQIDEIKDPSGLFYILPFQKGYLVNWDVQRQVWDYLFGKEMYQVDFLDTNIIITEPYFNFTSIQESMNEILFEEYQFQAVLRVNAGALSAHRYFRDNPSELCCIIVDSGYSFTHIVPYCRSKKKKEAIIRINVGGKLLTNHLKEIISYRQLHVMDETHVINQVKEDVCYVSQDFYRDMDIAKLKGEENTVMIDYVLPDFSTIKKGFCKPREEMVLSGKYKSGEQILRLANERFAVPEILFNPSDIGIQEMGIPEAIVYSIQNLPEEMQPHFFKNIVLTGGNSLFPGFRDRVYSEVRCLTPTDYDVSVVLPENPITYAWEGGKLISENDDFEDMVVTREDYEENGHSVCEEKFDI
UniProt Q8N302: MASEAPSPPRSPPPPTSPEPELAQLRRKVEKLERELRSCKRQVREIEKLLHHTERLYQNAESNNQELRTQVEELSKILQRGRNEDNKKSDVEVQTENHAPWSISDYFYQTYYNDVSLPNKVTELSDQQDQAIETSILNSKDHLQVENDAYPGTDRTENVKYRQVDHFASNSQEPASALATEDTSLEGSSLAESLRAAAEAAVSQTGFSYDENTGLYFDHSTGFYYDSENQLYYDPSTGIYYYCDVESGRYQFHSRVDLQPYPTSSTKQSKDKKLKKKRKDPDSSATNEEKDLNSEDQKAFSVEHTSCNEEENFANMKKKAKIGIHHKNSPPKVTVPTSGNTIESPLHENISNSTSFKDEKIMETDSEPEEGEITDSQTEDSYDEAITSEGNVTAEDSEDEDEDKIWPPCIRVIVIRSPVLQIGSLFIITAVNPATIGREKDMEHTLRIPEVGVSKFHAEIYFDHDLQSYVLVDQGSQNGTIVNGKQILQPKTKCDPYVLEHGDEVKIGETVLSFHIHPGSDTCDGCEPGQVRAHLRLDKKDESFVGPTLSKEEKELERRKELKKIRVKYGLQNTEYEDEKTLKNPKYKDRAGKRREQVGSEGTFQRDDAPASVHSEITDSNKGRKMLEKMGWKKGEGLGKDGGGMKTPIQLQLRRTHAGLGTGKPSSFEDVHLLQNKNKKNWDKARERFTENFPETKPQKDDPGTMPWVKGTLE
UniProt Q53H12: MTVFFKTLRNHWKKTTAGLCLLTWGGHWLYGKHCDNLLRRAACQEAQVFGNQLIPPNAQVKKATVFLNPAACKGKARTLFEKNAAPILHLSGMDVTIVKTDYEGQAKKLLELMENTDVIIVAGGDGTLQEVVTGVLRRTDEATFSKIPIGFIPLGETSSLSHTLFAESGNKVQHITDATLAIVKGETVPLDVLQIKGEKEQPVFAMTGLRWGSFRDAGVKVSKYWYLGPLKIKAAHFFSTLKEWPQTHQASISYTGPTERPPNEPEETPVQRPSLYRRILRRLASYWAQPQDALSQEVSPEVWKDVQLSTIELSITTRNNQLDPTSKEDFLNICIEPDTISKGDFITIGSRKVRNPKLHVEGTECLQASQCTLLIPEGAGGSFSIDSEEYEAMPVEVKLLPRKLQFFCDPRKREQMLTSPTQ

The list shows a part of the results.
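Further: competitive chemoproteomic profiling in live THP-1 cells with an iodoacetamide desthiobiotin (IA-DTB) probe, comparing probe-labelled peptide intensities in compound-treated cells against DMSO-treated controls.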

As for “ADK_P55263_160_SLIANLAAANCYK (UniProt P55263)”, the “probe-labelled cysteine peptide fold change” value was -0.0721 (10 µM) and -0.0931 (50 µM).

Regarding “ACSL4_O60488_552_WFCTGDIGEFHPDGCLQIIDR (UniProt O60488)”, the “probe-labelled cysteine peptide fold change” value was determined as 0.00367 (10 µM) and 0.137 (50 µM).

Regarding “ADAR_P55265_1036_TMSCSDK (UniProt P55265)”, the “probe-labelled cysteine peptide fold change” value runs as follows: (10 µM) 0.0166; (50 µM) -0.00474.

For “ADAM9_Q13443_575_LQCENVQEIPVFGIVPAIIQTPSR (UniProt Q13443)”, the “probe-labelled cysteine peptide fold change” value runs as follows: (10 µM) 0.334; (50 µM) -0.0231.

“ADGRL3_Q9HAR2_135_VFLCPGLLK (UniProt Q9HAR2)”: the “probe-labelled cysteine peptide fold change” value is 0.15 (10 µM) and 0.316 (50 µM).

“ACSL4_O60488_552+564_WFCTGDIGEFHPDGCLQIIDR (UniProt O60488)”: the “probe-labelled cysteine peptide fold change” value reads like this: (10 µM) 0.116; (50 µM) 0.0145.

In the case of “AFG3L2_Q9Y4W6_402_KNAPCILFIDEIDAVGR (UniProt Q9Y4W6)”, the “probe-labelled cysteine peptide fold change” value is, setting by setting: (10 µM) -0.215; (50 µM) -0.188.

Regarding “ADNP2_Q6IQ32_220_CNANASSQDALMYHILTSDIHR (UniProt Q6IQ32)”, the “probe-labelled cysteine peptide fold change” value reads like this: (10 µM) 0.112; (50 µM) -0.0224.

With “ADNP_Q9H2P0_76+79_TKPFCCSACPFSSK (UniProt Q9H2P0)”, the “probe-labelled cysteine peptide fold change” value is, setting by setting: (10 µM) -0.129; (50 µM) -0.118.

Turning to “ADNP_Q9H2P0_31_ILSDIGLEYCK (UniProt Q9H2P0)”, the “probe-labelled cysteine peptide fold change” value (10 µM) is -0.242 and the “probe-labelled cysteine peptide fold change” value (50 µM) is -0.102.

“ACSS3_Q9H6R3_602_GHVPLALCVLR (UniProt Q9H6R3)”: the “probe-labelled cysteine peptide fold change” value was -0.0322 (10 µM) and 0.162 (50 µM).

ADH5_P11766_111_TNLCQK (UniProt P11766): the “probe-labelled cysteine peptide fold change” value (10 µM) was found to be 0.0149 and the “probe-labelled cysteine peptide fold change” value (50 µM) is -0.0362.

In the case of “ACTR5_Q9H9F9_48_AGWACPGQDPGPEPR (UniProt Q9H9F9)”, the “probe-labelled cysteine peptide fold change” value (10 µM) was 0.0286 and the “probe-labelled cysteine peptide fold change” value (50 µM) was -0.0707.

On to “ADCY7_P51828_382_VGIHSGNVLCGVIGLR (UniProt P51828)”, for which the “probe-labelled cysteine peptide fold change” value by setting is: (10 µM) -0.00813; (50 µM) -0.0188.

Regarding “ACTR3_P61158_235_YSYVCPDLVK (UniProt P61158)”, the “probe-labelled cysteine peptide fold change” value by setting is: (10 µM) 0.00715; (50 µM) -0.0759.

Regarding “ACOT4_Q8N9L9_121_LLCQAQHER (UniProt Q8N9L9)”, the “probe-labelled cysteine peptide fold change” value (10 µM) is -0.132 and the “probe-labelled cysteine peptide fold change” value (50 µM) was -0.0427.

For “AGA_P20933_163_NCQPNYWR (UniProt P20933)”, the “probe-labelled cysteine peptide fold change” value is, setting by setting: (10 µM) -0.0466; (50 µM) -0.0578.

On to “ACY1_Q03154_49_QLGLGCQK (UniProt Q03154)”, for which the “probe-labelled cysteine peptide fold change” value (10 µM) came out at 0.0526 and the “probe-labelled cysteine peptide fold change” value (50 µM) was 0.164.

On to “ADSL_P30566_113_AAGIIHLGATSCYVGDNTDLIILR (UniProt P30566)”, for which the “probe-labelled cysteine peptide fold change” value is, setting by setting: (10 µM) 0.0481; (50 µM) 0.29.

With “ACTB_P60709_17_DDDIAALVVDNGSGMCK (UniProt P60709)”, the “probe-labelled cysteine peptide fold change” value runs as follows: (10 µM) -0.0879; (50 µM) -0.264.

On to “ADSS_P30520_182_MCDLVSDFDGFSER (UniProt P30520)”, for which the “probe-labelled cysteine peptide fold change” value (10 µM) stood at 0.0814 and the “probe-labelled cysteine peptide fold change” value (50 µM) is 0.0196.

For the target “ACTN4_O43707_495_CQKICDQWDALGSLTHSRR (UniProt O43707)”, the “probe-labelled cysteine peptide fold change” value is, setting by setting: (10 µM) -0.106; (50 µM) -0.122.

Take “ACTR6_Q9GZN1_28_IGYSHENVSVIPNCQFR (UniProt Q9GZN1)”: the “probe-labelled cysteine peptide fold change” value (10 µM) came out at 0.0538 and the “probe-labelled cysteine peptide fold change” value (50 µM) worked out at 0.0379.

Turning to “ADNP_Q9H2P0_167_QADSVEQAVYYCK (UniProt Q9H2P0)”, the “probe-labelled cysteine peptide fold change” value (10 µM) amounted to 0.182 and the “probe-labelled cysteine peptide fold change” value (50 µM) stood at 0.139.

Regarding “ADAR_P55265_649_FQYCVAVGAQTFPSVSAPSK (UniProt P55265)”, the “probe-labelled cysteine peptide fold change” value runs as follows: (10 µM) 0.0711; (50 µM) -0.146.

With “ADH5_P11766_100_AGDTVIPLYIPQCGECK (UniProt P11766)”, the “probe-labelled cysteine peptide fold change” value is 0.0491 (10 µM) and -0.0475 (50 µM).

Turning to “ADGRL2_O95490_136_YLEVQYECVPYIFVCPGTLK (UniProt O95490)”, the “probe-labelled cysteine peptide fold change” value was 0.101 (10 µM) and 0.0273 (50 µM).

Take “ACTR8_Q9H981_351_ETFCHLDQDISGLQDHEFQIR (UniProt Q9H981)”: the “probe-labelled cysteine peptide fold change” value runs as follows: (10 µM) 0.282; (50 µM) 0.258.

On to “ADAR_P55265_909_GETVNDCHAEIISR (UniProt P55265)”, for which the “probe-labelled cysteine peptide fold change” value by setting is: (10 µM) 0.121; (50 µM) 0.0309.

With “AGFG1_P52594_32_CFDCDQR (UniProt P52594)”, the “probe-labelled cysteine peptide fold change” value reads like this: (10 µM) 0.119; (50 µM) 0.231.

With “AGGF1_Q8N302_307_AFSVEHTSCNEEENFANMK (UniProt Q8N302)”, the “probe-labelled cysteine peptide fold change” value reads like this: (10 µM) 0.149; (50 µM) -0.0159.

As for AGK_Q53H12_34_HCDNLLR (UniProt Q53H12), the “probe-labelled cysteine peptide fold change” value runs as follows: (10 µM) -0.0547; (50 µM) 0.0473.

On to “ADSS_P30520_58_VVDLLAQDADIVCR (UniProt P30520)”, for which the “probe-labelled cysteine peptide fold change” value was -0.034 (10 µM) and 0.0558 (50 µM).

Turning to “ACSL4_O60488_564_WFCTGDIGEFHPDGCLQIIDR (UniProt O60488)”, the “probe-labelled cysteine peptide fold change” value reads like this: (10 µM) -0.0644; (50 µM) 0.16.

As to “ACSL4_O60488_363_GDCTVLKPTLMAAVPEIMDR (UniProt O60488)”, the “probe-labelled cysteine peptide fold change” value (10 µM) stood at 0.161 and the “probe-labelled cysteine peptide fold change” value (50 µM) is 0.115.
